Earlier results in publication PMC11359394 (Pharmaceutics, 2024).

- intrinsic solubility in water: 0.1 µg/mL
SMILES: CC(=O)O[C@H]1C(=O)[C@@]2(C)[C@H]([C@H](OC(=O)c3ccccc3)[C@]3(O)C[C@H](OC(=O)[C@H](O)[C@@H](NC(=O)c4ccccc4)c4ccccc4)C(C)=C1C3(C)C)[C@]1(OC(C)=O)CO[C@@H]1C[C@@H]2O [Paclitaxel]
